Step yield and oxidative folding yield data for seven substances are collected here from patent US20040225108 (published 2004).

The series is described as follows: general procedure: solution-phase peptide synthesis; DCCI/HOBt. To be noted: 2TFA (linear octapeptides XVI, XIX).

[ ]: non-standard residue; d: D form. The star is where a group is joined. Boc = CC(C)(C)OC(=O)*; Acm = CC(=O)NC*

“Boc-(D)-Phe-Cys(Acm)-Phe-(D)-Trp-Lys(Boc)-Thr-Cys(Acm)-Thr-OL” gave a step yield (coupling step) of 88%. Boc-[dF]C(Acm)F[dW]K(Boc)T-OMe came in with a step yield (coupling step) of 76.3%. octreotide gave an oxidative folding yield (oxidative folding step, on linear octapeptide XVI) of 84%. For the substance “Boc-(D)-Phe-Cys(Acm)-Phe-(D)-Trp-Lys(Boc)-Thr-Cys(Acm)-Thr-OMe”, the step yield (coupling step) is on record as 79%.

Substance “H-(D)-Phe-Cys(Acm)-Phe-(D)-Trp-Lys-Thr-Cys(Acm)-Thr-OMe. 2TFA” gave a step yield (late stage modification step) of 91%.

On to “H-(D)-Phe-Cys(Acm)-Phe-(D)-Trp-Lys-Thr-Cys(Acm)-Thr-OL. 2TFA”, for which the step yield by setting is: (late stage modification step, run 1) 80%; (late stage modification step, run 2) 69%.

Regarding Boc-[dF]C(Acm)F[dW]K(Boc)T-OH, the step yield (late stage modification step) is recorded as 97%.
